The other results are listed elsewhere or left out.
Legend:
Test in all cases: log2 fold change, soluble protein after heating vs DMSO (PISA); higher = thermal stabilisation; K562 cells, 10 uM, 30 min; active = over 0.2 and 3.5 SD of the protein, either way, in both replicates (recomputed)
saracatinib = compound: CN1CCN(CCOc2cc(OC3CCOCC3)c3c(Nc4c(Cl)ccc5c4OCO5)ncnc3c2)CC1 [saracatinib]
Procedure, shortened: (§1)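 Soluble protein was defined as the supernatant after 21,000xg for 90 min. It came from K562 cells at 2×10^6 cells/mL given 10 μM compound for 30 min, heated in aliquots for 3 min across 48°C-58°C, pooled, and extracted in PBS with 0.5% NP-40 at 4°C, and was quantified by TMTpro 16plex LC-MS/MS with equalised channel sums. Thermal stability against control samples, from duplicates, is reported as log2 fold change.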

Sequences of proteins named here, by UniProt entry; tags and fusion partners are left off. A change or cut given only in a name is not applied to a line headed by its entry.
UniProt P29692: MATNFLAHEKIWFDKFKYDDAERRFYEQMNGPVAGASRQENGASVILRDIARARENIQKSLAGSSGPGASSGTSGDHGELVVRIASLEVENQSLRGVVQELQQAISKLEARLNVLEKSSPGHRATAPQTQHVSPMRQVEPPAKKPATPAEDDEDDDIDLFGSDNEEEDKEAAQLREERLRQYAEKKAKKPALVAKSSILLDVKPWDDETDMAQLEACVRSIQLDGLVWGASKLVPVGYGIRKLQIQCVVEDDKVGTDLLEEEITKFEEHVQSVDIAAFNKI
UniProt Q9H0I2: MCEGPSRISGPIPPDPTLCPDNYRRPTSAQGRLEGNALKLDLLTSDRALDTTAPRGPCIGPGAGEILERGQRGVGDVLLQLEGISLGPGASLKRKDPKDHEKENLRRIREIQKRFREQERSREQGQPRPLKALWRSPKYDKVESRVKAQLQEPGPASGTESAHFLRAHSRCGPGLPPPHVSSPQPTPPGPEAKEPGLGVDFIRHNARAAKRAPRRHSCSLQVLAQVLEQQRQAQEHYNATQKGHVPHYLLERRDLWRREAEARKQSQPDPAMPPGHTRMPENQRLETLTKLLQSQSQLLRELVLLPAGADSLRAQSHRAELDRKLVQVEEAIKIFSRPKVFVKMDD
UniProt Q5VUJ9: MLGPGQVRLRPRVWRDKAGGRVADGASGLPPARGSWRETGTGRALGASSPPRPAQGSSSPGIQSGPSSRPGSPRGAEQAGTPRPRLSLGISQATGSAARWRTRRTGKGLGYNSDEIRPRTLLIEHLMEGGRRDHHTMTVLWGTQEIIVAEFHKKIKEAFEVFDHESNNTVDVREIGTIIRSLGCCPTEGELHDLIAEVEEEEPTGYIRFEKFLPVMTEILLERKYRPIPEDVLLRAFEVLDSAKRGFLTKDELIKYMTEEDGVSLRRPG
UniProt O75355: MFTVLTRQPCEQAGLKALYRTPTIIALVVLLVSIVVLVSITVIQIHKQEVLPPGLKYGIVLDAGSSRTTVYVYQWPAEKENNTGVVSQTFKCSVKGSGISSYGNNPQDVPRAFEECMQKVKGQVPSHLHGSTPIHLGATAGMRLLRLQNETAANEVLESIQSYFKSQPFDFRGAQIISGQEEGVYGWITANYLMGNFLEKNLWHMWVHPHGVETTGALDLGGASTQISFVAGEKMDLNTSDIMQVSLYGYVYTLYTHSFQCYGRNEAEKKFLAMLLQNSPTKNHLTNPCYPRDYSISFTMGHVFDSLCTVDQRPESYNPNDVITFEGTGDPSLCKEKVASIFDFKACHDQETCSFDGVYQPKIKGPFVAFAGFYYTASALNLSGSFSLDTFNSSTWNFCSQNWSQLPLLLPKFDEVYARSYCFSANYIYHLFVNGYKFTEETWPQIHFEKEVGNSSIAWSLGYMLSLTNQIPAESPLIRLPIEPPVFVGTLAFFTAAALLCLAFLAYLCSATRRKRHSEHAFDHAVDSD
UniProt Q14156: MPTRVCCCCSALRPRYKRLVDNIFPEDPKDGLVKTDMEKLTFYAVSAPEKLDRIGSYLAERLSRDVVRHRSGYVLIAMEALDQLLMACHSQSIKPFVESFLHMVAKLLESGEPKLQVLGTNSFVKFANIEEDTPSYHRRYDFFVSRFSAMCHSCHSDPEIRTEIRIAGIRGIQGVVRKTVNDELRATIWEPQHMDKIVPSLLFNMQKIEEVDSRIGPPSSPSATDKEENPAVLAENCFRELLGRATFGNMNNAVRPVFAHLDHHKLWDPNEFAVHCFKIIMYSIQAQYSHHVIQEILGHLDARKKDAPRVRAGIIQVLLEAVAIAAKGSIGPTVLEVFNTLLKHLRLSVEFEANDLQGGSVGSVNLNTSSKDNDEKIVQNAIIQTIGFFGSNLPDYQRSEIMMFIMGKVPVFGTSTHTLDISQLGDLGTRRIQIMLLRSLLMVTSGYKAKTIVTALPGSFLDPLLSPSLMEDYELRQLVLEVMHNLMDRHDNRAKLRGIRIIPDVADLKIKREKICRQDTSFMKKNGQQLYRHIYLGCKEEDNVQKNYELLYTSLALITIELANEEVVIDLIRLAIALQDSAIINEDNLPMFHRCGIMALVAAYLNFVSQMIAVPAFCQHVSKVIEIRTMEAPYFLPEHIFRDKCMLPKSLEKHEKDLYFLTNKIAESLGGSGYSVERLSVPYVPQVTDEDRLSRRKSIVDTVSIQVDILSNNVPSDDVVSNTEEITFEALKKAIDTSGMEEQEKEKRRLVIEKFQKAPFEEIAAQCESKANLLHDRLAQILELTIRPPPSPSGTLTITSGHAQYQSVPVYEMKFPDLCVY
UniProt A1L3X0: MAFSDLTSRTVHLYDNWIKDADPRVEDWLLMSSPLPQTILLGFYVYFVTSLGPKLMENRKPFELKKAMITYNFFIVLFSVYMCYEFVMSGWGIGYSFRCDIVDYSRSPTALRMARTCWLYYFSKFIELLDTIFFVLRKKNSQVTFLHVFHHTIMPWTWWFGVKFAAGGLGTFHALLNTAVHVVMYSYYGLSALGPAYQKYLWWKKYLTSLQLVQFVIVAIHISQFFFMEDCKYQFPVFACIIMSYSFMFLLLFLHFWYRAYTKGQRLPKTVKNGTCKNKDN
UniProt P19419: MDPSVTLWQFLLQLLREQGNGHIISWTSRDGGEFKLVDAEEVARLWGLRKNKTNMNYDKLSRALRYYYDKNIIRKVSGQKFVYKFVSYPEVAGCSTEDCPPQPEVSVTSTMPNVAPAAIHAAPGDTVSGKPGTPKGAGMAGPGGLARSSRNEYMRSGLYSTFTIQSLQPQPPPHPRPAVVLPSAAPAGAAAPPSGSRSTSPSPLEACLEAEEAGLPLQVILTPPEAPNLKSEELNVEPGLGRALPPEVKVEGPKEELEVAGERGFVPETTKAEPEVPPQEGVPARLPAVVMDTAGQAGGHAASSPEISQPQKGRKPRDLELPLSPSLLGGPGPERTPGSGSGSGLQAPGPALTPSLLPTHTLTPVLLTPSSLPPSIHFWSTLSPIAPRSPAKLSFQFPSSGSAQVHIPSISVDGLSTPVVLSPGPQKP
UniProt Q9UHF1: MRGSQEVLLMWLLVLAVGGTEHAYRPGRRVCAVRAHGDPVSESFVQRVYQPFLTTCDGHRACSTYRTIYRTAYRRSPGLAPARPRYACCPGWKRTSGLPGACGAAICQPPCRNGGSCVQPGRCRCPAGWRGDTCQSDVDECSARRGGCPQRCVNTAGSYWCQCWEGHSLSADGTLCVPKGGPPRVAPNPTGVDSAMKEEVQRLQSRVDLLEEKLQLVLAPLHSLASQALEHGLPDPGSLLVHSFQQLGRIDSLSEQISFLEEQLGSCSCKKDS
UniProt Q9Y227: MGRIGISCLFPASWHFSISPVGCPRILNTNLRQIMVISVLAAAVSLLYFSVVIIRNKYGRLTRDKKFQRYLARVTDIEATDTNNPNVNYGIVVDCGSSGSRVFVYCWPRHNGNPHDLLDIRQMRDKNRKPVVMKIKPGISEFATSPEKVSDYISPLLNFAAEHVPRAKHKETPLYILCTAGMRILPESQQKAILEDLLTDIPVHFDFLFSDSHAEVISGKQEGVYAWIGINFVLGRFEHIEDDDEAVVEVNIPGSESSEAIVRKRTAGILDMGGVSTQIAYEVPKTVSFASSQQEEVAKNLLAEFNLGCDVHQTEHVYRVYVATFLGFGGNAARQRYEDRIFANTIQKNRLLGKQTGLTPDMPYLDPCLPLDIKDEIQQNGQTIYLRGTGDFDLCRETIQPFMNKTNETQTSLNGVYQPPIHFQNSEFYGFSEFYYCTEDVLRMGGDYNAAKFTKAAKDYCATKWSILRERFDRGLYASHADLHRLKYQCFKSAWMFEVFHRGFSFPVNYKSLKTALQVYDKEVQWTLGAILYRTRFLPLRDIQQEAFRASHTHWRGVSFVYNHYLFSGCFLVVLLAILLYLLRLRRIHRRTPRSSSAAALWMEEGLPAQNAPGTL
UniProt Q6ZTU2, whole entry, looked up: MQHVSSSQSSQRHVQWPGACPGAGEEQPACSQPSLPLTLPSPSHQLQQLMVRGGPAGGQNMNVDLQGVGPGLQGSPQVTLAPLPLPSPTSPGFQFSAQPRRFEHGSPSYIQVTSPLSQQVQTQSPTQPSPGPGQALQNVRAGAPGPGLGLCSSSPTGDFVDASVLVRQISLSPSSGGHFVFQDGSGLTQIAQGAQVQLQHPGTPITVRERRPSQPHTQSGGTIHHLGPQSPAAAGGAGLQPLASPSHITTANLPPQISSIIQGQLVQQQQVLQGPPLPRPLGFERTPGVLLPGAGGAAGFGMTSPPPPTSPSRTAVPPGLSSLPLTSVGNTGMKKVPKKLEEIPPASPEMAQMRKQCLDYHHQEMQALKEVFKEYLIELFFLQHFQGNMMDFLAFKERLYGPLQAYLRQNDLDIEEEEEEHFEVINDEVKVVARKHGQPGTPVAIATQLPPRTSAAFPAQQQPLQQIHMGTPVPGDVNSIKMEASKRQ
UniProt Q8NDI1: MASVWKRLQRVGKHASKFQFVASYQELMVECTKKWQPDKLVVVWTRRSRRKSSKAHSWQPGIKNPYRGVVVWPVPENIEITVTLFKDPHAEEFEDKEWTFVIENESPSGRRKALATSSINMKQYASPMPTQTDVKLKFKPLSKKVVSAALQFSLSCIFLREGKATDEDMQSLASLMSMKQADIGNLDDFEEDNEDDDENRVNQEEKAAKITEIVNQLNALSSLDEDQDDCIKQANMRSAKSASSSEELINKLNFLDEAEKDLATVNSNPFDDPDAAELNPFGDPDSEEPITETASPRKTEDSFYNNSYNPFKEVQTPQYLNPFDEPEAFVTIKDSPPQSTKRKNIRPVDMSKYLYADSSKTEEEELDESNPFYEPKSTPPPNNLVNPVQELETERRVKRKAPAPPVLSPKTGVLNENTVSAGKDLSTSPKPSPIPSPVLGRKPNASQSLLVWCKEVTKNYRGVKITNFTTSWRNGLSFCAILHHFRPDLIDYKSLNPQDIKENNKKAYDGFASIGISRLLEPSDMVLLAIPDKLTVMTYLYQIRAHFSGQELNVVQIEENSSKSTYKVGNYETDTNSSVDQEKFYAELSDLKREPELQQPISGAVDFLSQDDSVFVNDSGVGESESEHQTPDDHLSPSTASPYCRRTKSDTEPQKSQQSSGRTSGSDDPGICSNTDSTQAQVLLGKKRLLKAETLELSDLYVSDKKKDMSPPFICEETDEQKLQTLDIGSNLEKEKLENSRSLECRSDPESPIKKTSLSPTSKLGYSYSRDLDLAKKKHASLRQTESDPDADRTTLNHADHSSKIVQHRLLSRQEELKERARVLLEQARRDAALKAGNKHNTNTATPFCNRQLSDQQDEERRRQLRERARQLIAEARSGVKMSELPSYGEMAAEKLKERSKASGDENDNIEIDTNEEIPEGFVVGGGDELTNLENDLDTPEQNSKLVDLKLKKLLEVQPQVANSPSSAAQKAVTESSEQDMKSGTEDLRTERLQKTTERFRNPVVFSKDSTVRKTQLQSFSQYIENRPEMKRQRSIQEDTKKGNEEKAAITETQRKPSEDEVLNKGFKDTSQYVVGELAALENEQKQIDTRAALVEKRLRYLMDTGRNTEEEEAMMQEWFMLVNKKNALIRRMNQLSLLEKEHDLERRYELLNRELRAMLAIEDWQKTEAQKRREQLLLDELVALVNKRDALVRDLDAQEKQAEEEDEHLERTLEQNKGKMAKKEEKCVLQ
UniProt Q8N5X7: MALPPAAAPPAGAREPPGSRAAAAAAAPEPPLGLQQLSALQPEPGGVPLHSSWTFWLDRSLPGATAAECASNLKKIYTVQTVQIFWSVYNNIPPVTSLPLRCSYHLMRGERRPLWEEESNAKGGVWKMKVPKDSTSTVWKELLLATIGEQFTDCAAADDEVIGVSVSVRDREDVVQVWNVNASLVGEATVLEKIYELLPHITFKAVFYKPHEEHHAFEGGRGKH
UniProt Q96JJ3: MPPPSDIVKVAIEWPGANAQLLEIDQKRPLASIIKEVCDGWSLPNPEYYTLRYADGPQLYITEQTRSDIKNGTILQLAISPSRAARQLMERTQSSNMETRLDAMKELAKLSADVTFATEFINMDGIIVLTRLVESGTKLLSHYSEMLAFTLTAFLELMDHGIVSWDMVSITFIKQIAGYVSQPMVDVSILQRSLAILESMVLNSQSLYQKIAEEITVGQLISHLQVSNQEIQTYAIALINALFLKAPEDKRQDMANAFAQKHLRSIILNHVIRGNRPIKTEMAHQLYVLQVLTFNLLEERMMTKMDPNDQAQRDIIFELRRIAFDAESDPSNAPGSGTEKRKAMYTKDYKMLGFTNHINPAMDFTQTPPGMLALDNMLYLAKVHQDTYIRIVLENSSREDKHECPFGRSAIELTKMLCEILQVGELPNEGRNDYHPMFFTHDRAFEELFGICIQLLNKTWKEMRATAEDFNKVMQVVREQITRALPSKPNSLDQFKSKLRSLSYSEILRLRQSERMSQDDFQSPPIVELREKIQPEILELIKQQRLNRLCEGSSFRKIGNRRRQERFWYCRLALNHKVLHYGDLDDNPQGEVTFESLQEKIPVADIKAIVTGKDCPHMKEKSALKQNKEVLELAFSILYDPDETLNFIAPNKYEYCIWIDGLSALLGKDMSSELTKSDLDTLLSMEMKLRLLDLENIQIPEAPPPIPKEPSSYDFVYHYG

sotrastaurin = compound: CN1CCN(c2nc(C3=C(c4c[nH]c5ccccc45)C(=O)NC3=O)c3ccccc3n2)CC1 [sotrastaurin]
Procedure, shortened: as §1

[1] = compound: CNc1nc(-c2ccc3c(N)n[nH]c3c2)cc(N2C[C@@H](C(=O)NC3CCCCC3)CC[C@H]2C)n1
Procedure, shortened: as §1

[2] = compound: COC1=CC=C(C=C1)CN2C=CC3=C2C=C(C=C3)C(=O)NO
Procedure, shortened: as §1

filanesib = compound: CON(C)C(=O)N1N=C(c2cc(F)ccc2F)S[C@@]1(CCCN)c1ccccc1 [filanesib]
Procedure, shortened: as §1

Tubastatin A = compound: CN1CCc2c(c3ccccc3n2Cc2ccc(C(=O)NO)cc2)C1 [Tubastatin A]
Procedure, shortened: as §1

[3] = compound: CNC(=O)C1=CC=CC=C1NC2=NC(=NC=C2Cl)NC3=C(C=C(C=C3)N4CCOCC4)OC
Procedure, shortened: as §1

alisertib = compound: COc1cc(Nc2ncc3c(n2)-c2ccc(Cl)cc2C(c2c(F)cccc2OC)=NC3)ccc1C(=O)O [alisertib]
Procedure, shortened: as §1

[4] = compound: COc1cccc2cc(-c3nc([C@H]4CC[C@H](C(=O)O)CC4)n4ncnc(N)c34)[nH]c12
Procedure, shortened: as §1

defactinib = compound: CNC(=O)c1ccc(Nc2ncc(C(F)(F)F)c(NCc3nccnc3N(C)S(C)(=O)=O)n2)cc1 [defactinib]
Procedure, shortened: as §1

[5] = compound: COC(=O)[C@H](CCSC)NC(=O)C1=C(C=C(C=C1)NC[C@H](CS)N)C2=CC=CC=C2
Procedure, shortened: as §1

[6] = compound: COc1cc2nc(-c3cc(F)ccc3O)nc(N[C@@H]3CNC[C@H]3C(C)(C)O)c2cc1OC
Procedure, shortened: as §1

lapatinib = compound: CS(=O)(=O)CCNCc1ccc(-c2ccc3ncnc(Nc4ccc(OCc5cccc(F)c5)c(Cl)c4)c3c2)o1 [lapatinib]
Procedure, shortened: as §1

rucaparib = compound: CNCc1ccc(-c2[nH]c3cc(F)cc4c3c2CCNC4=O)cc1 [rucaparib]
Procedure, shortened: as §1

encorafenib = compound: COC(=O)N[C@@H](C)CNc1nccc(-c2cn(C(C)C)nc2-c2cc(Cl)cc(NS(C)(=O)=O)c2F)n1 [encorafenib]
Procedure, shortened: as §1

pictilisib = compound: CS(=O)(=O)N1CCN(Cc2cc3nc(-c4cccc5[nH]ncc45)nc(N4CCOCC4)c3s2)CC1 [pictilisib]
Procedure, shortened: as §1

idasanutlin = compound: COc1cc(C(=O)O)ccc1NC(=O)[C@@H]1N[C@@H](CC(C)(C)C)[C@](C#N)(c2ccc(Cl)cc2F)[C@H]1c1cccc(Cl)c1F [idasanutlin]
Procedure, shortened: as §1

gefitinib = compound: COc1cc2ncnc(Nc3ccc(F)c(Cl)c3)c2cc1OCCCN1CCOCC1 [gefitinib]
Procedure, shortened: as §1

zotarolimus = compound: CO[C@H]1C[C@@H]2CC[C@@H](C)[C@@](O)(O2)C(=O)C(=O)N2CCCC[C@H]2C(=O)O[C@H]([C@H](C)C[C@@H]2CC[C@H](n3cnnn3)[C@H](OC)C2)CC(=O)[C@H](C)/C=C(\C)[C@@H](O)[C@@H](OC)C(=O)[C@H](C)C[C@H](C)/C=C/C=C/C=C/1C [zotarolimus]
Procedure, shortened: as §1

alvocidib = compound: CN1CC[C@H](c2c(O)cc(O)c3c(=O)cc(-c4ccccc4Cl)oc23)[C@H](O)C1 [alvocidib]
Procedure, shortened: as §1

Measured: log2 fold change

EEF1AKMT4-ECE2 (UniProt P0DPD8)
inactive: saracatinib -0.25 | sotrastaurin -0.226 | [1] -0.179 | [2] 0.167 | filanesib -0.152

EEF1D isoform 3 (UniProt P29692)
inactive: Tubastatin A 0.147 | [3] -0.03 | alisertib -0.067 | [4] -0.105

ENTR1 (UniProt Q96C92)
active: [5] -0.486
inactive: saracatinib -0.131 | [3] -0.03 | defactinib 0.022 | [1] -0.039 | [6] -0.065 | lapatinib 0.075

ENKD1 (UniProt Q9H0I2)
inactive: Tubastatin A 0.175 | [3] -0.231 | defactinib 0.108 | rucaparib 0.114 | encorafenib 0.03 | [5] -0.143 | [6] 0.057 | lapatinib -0.02 | pictilisib -0.016

EFCAB2 (UniProt Q5VUJ9)
inactive: [3] -0.026 | rucaparib 0.027 | encorafenib -0.122 | idasanutlin 0.14 | pictilisib 0.061

ELP5 isoform 2 (UniProt Q8TE02)
inactive: [3] -0.265 | [6] -0.105 | lapatinib 0.245

ENTPD3 (UniProt O75355)
inactive: [2] 0.779 | [6] -0.021 | lapatinib 0.073

EFR3A (UniProt Q14156)
inactive: sotrastaurin -0.285 | defactinib 0.012 | [5] 0 | filanesib 0.062 | alisertib -0.036 | gefitinib 0.104 | [4] -0.022

ELOVL7 (UniProt A1L3X0)
inactive: saracatinib -0.018 | Tubastatin A -0.002 | [3] -0.112 | [1] -0.093 | zotarolimus 0.012 | idasanutlin -0.118

ELAVL4 (UniProt P26378)
inactive: alvocidib 0.13 | Tubastatin A 0.049 | rucaparib 0.555 | encorafenib 0.172 | [2] -0.016 | zotarolimus 0.04 | gefitinib -0.044 | pictilisib -0.038

ELK1 (UniProt P19419)
inactive: [2] 0.16 | pictilisib -0.226

EEF1AKMT2 (UniProt Q5JPI9)
inactive: sotrastaurin 0.194 | [3] -0.021 | rucaparib 0.009 | encorafenib 0.08 | filanesib 0.089 | alisertib -0.152 | [4] 0.033

EP400 (UniProt Q96L91)
inactive: sotrastaurin -0.087 | alvocidib 0.179 | filanesib -0.021 | zotarolimus -0.118 | alisertib 0 | [4] 0.269 | pictilisib 0.032

EGR1 (UniProt P18146)
inactive: sotrastaurin -0.481 | Tubastatin A 0.129 | [3] -0.147 | [5] 0.041 | filanesib 0.463 | zotarolimus 0.125 | idasanutlin 0.164 | alisertib -0.54 | [6] -0.24 | gefitinib -0.183 | [4] 0.079 | lapatinib 0.067 | pictilisib -0.362
active: defactinib -0.841

EGFL7 (UniProt Q9UHF1)
inactive: sotrastaurin 0.042 | filanesib 0.069 | idasanutlin 0.17 | pictilisib 0.033

EIF4G1 (UniProt Q04637)
inactive: saracatinib -0.112 | Tubastatin A 0.006 | defactinib -0.08 | [1] -0.017 | [5] 0.014 | zotarolimus -0.118 | idasanutlin 0.071 | pictilisib -0.307

ENO3 (UniProt K7EKN2)
inactive: saracatinib 0.116 | [1] 0.279

EPB41, A0A2R8Y783
inactive: saracatinib 0.152 | [1] 0.008 | [2] -0.195 | gefitinib 0.079

EIF4H isoform 2 (UniProt Q15056)
inactive: [3] 0.081 | idasanutlin 0.355 | pictilisib 0.041

EPB41 isoform 4 (UniProt P11171)
inactive: Tubastatin A 0.099 | alisertib 0.013 | [6] -0.032 | [4] -0.051 | lapatinib 0.173 | pictilisib -0.018

ENTPD4 (UniProt Q9Y227)
inactive: sotrastaurin 0.033 | Tubastatin A -0.117 | [3] 0.116 | rucaparib 0.115 | encorafenib 0 | [2] 0.031 | filanesib 0.029 | pictilisib -0.019

2 consecutive entries out of the list so far, quoted:
EPB41, A0A2R8Y783
inactive: saracatinib 0.152 | [1] 0.008 | [2] -0.195 | gefitinib 0.079

EIF4H isoform 2 (UniProt Q15056)
inactive: [3] 0.081 | idasanutlin 0.355 | pictilisib 0.041

(continued)

EIF1B (UniProt O60739)
inactive: sotrastaurin 0.025 | [3] 0.161 | rucaparib -0.072 | encorafenib 0.172 | [2] 0.19 | filanesib -0.166 | alisertib 0.221 | [4] -0.677

EMC9 (UniProt Q9Y3B6)
inactive: gefitinib 0.062

EPB41, A0A2R8Y6D0
inactive: sotrastaurin 0.159 | alvocidib -0.063 | Tubastatin A 0.036 | [3] 0.14 | defactinib 0.053 | rucaparib 0.227 | encorafenib 0.004 | [5] -0.083 | filanesib 0.164 | zotarolimus -0.013 | idasanutlin 0.122 | alisertib 0.011 | [6] -0.107 | gefitinib 0 | [4] -0.021 | lapatinib 0.029 | pictilisib 0.192

EP400P1 isoform 6 (UniProt Q6ZTU2)
inactive: saracatinib -0.018 | Tubastatin A -0.013 | [1] 0.125

EIF2AK3 (UniProt Q9NZJ5)
inactive: saracatinib -0.019 | Tubastatin A 0.039 | [3] 0.183 | rucaparib -0.125 | [1] 0.082 | encorafenib -0.216 | [2] 0.135 | zotarolimus -0.06 | idasanutlin -0.039 | alisertib -0.141 | [6] 0.201 | gefitinib -0.161 | [4] 0.078 | lapatinib 0.146 | pictilisib -0.233

EHBP1 (UniProt Q8NDI1)
inactive: Tubastatin A 0.045 | rucaparib 0.135 | encorafenib -0.058 | zotarolimus -0.02 | idasanutlin 0.031 | alisertib 0.025 | [4] 0.086 | pictilisib 0.057

EIF4E3 (UniProt Q8N5X7)
inactive: [3] -0.003 | rucaparib -0.198 | encorafenib -0.109 | [2] 0.009

ENAH (UniProt Q8N8S7)
inactive: defactinib 0.122 | [5] 0.052 | pictilisib 0.114

EIF4B (UniProt F8VP89)
inactive: alvocidib -0.019 | rucaparib -0.059 | encorafenib 0.036 | [2] -0.194 | zotarolimus -0.027 | idasanutlin 0.186 | alisertib 0.012 | [6] 0.47 | gefitinib 0.064 | [4] 0.003 | lapatinib -0.433 | pictilisib 0.19

ENO2 (UniProt U3KQQ1)
inactive: sotrastaurin 0.035 | [2] -0.137 | filanesib 0.189 | [6] 0.121 | lapatinib -0.311 | pictilisib 0.404

EEF2K (UniProt O00418)
inactive: [3] 0.064 | defactinib -0.021 | rucaparib 0.1 | encorafenib -0.036 | [5] -0.266 | zotarolimus 0.021 | alisertib 0.031 | [6] -0.062 | lapatinib -0.017 | pictilisib -0.014
active: [4] -0.896

EID1 (UniProt Q9Y6B2)
inactive: sotrastaurin -0.049 | Tubastatin A 0.599 | [3] -0.111 | filanesib 0.119 | alisertib 0.024 | [6] 0.015 | gefitinib -0.031 | [4] -0.239 | lapatinib -0.097 | pictilisib 0.3

ELMO2 (UniProt Q96JJ3)
inactive: saracatinib -0.129 | [1] -0.018

ELOA (UniProt Q14241)
inactive: rucaparib -0.057 | encorafenib -0.153 | alisertib -0.001 | [4] -0.214 | pictilisib 0.036
